In article doi:10.1101/2021.06.20.449167 (bioRxiv, 2021):
Like-named read-outs stand apart in the source and are kept apart here. Construct, isoform or probe ends are uncertain for at least one entry. A weaker result is weaker than the reference pair of the same experiment. At least one verdict rests on a figure or table, not on a statement of the authors.

Test system: Fy-1 (TBCK) + Fy-2 (PPP1R21) + Fy-3 (C12orf4) + Fy-4 (CRYZL1) + Fy-5 (GATD1)
Assay: EMSA

Row | Sequence | binding result (FERRY/RNA ratio 5) | binding result
1 | GGGAGUAGUUCCGCUUCCUGUCCGACUGUGGUGUCUUUGCUGAGGGUCACAUUGAGCUGCAGGUUGAAUCCGGGGUGCCUUUAGGAUUCAGCACCAUGGCGGAAGACAUGGAGACCAAAAUCAAGAACUACAAGACCGCCCCUUUUGACAGCCGCUUCCCCAACCAGAACCAGACUAGAAACUGCUGGCAGAACUACCUGGACUUCCACCGCUGUCAGAAGGCAAUGACCGCUAAAGGAGGCGAUAUCUCUGUGUGCGAAUGGUACCAGCGUGUGUACCAGUCCCUCUGCCCCACAUCCUGGGUCACAGACUGGGAUGAGCAACGGGCUGAAGGCACGUUUCCCGGGAAGAUCUGAACUGGCUGCAUCUCCCUUUCCUCUGUCCUCCAUCCUUCUCCCAGGAUGGUGAAGGGGGACCUGGUACCCAGUGAUCCCCACCCCAGGAUCCUAAAUCAUGACUUACCUGCUAAUAAAAACUCAUUGGAAAAGUGAAAAAAAAAAAAAAAAAAAAAAAAAAAAAAAAAAAAAAAAAAAAAAAAAAAGCGGCCGC [cox6b mRNA (full+50A)] | binds more weakly | –
2 | GGGAUGGGCGUCCUGGCCGCAGCGGCGCGCUGCCUGGUCCGGGGUGCGGACCGAAUGAGCAAGUGGACGAGCAAGCGGGGCCCGCGCAGCUUCAGGGGCCGCAAGGGCCGGGGCGCCAAGGGCAUCGGCUUCCUCACCUCGGGCUGGAGGUUCGUGCAGAUCAAGGAGAUGGUCCCGGAGUUCGUCGUCCCGGAUCUGACCGGCUUCAAGCUCAAGCCCUACGUGAGCUACCUCGCCCCUGAGAGCGAGGAGACGCCCCUGACGGCCGCGCAGCUCUUCAGCGAAGCCGUGGCGCCUGCCAUCGAAAAGGACUUCAAGGACGGUACCUUCGACCCUGACAACCUGGAAAAGUACGGCUUCGAGCCCACACAGGAGGGAAAGCUCUUCCAGCUCUACCCCAGGAACUUCCUGCGCUAGGCGGCCGC [mrpl41 orf] | – | binds more weakly
3 | GGGAUUUUGGCUUCCUGACCUUGGGCUACGGCUGACCGUUUUUUGUGGUGUACUCCGUGCCAUCAUGUCCGUCCUGACGCCGCUGCUGCUGCGGGGCUUGACAGGCUCGGCCCGGCGGCUCCCAGUGCCGCGCGCCAAGAUCCAUUCGUUGCCGCCGGAGGGGAAGCUUGGGAUCAUGGAAUUGGCCGUUGGGCUUACCUCCUGCUUCGUGACCUUCCUCCUGCCAGCGGGCUGGAUCCUGUCACACCUGGAGACCUACAGGAGGCCAGAGUGAAGGGGUCCGUUCUGUCCCUCACACUGUGACCUGACCAGCCCCACCGGCCCAUCCUGGUCAUGUUACUGCAUUUGUGGCCGGCCUCCCCUGGAUCAUGUCAUUCAAUUCCAGUCACCUCUUCUGCAAUCAUGACCUCUUGAUGUCUCCAUGGUGACCUCCUUGGGGGUCACUGACCCUGCUUGGUGGGGUCCCCCUUGUAACAAUAAAAUCUAUUUAAACUUUAAAAAAAAAAAAAAAAAAAAAAAAAAAAAAAAAAAAAAAAAAAAAAAAAAAGCGGCCGC [cox8a mRNA (full+50A)] | binds more weakly | –
4 | GGGUGCUCUGUGGGAGGGACUUUGCUGAUUUCCCCUCUUCCCUUCAACAUGAAAAUAUAUACCCCCCCAUGCAGUCUAAAAUGCUUCAGUACUUGUGAAACACAGCUGUUCUUCUGUUCUGCAGACACGCCUUCCCCUCAGCCACACCCAGGCACUUAAGCACAAGCAGAGUGCACAGCUGUCCACUGGGCCAUUGUGGUGUGAGCUUCAGAUGGUGAAGCAUUCUCCCCAGUGUAUGUCUUGUAUCCGAUAUCUAACGCUUUAAAUGGCUACUUUGGUUUCUGUCUGUAAGUUAAGACCUUGGAUGUGGUUUAAUUGUUUGUCCUCAAAAGGAAUAAAACUUUUCUGCUGAUAAGAUAGCCACAGCUGAUUCUCAUUUUCUUUUAAAAAAAAAAAAAAAAAAAAAAAAAAAAAAAAAAAAAAAAAAAAAAAAAAGCGGCCGC [uchl1 3'UTR-50A] | – | binds more weakly
